Results taken from PubChem BioAssay AID314 (DTP/NCI, 2004).
The list is a part of this screen's results and no random one: it gathers tests that were run many times, whatever their T/C, doses with no T/C, and many T/C values between a quarter and a half above the control. Other doses and runs of a compound stand elsewhere. T/C gives the treated animals as a percentage of the vehicle group. Some doses have a count of surviving animals in place of a T/C: the source holds a T/C of zero for them, seemingly a mark for toxic or unscored doses. Some survivor counts are full or nearly so, which does not show that the dose was tolerated: the source hardly ever lists a survival T/C far under the control, and the zero likely stands for such cases as well. Survivors were counted at the toxicity check, usually on the fifth day, unless a day is given; later deaths do not show. Schedules are NCI's codes, read here as Q, the interval in days (D) or hours (H), X, the number of doses. Some entries hold several experiments; their values stand side by side, smallest first. Some schedule codes hold Z or #, which are not explained here. For survival time, this PubChem deposit counts one and a half times the control or more as active, and values a quarter to a half above the control carry no call in these data; other NCI protocols may use other cut-offs. Counts like (3×) stand for listed records that agree. Some T/C values carry the count of animals alive at the toxicity check (mostly the fifth day); without a count, all were alive then.

System: DBA/2 mice, P1534 leukemia ip, survival T/C
Test: NCI In Vivo Anticancer Drug Screen. Data for tumor model P1534 Leukemia (intraperitoneal) in DBA/2 mice
Settings: T/C endpoint: mean survival time, higher T/C = longer survival
Protocol: The antitumor activity of compounds was measured in mice bearing transplantable tumors. Survival or tumor size were measured and the results are expressed as the measurement made in the treated group (T) divided by the measurement made in the vehicle treated control group (C). The tumor model used in this assay is P1534 Leukemia (intraperitoneal) in DBA/2 mice

[1] = dose: 37.5 mg/kg/injection, schedule: Q01DX010 (ip), vehicle: saline
[2] = dose: 75.0 mg/kg/injection, schedule: Q01DX010 (ip), vehicle: saline
[3] = dose: 150.0 mg/kg/injection, schedule: Q01DX010 (ip), vehicle: saline
[4] = dose: 1.0 mg/kg/injection, schedule: Q01DX010 (ip), vehicle: saline
[5] = dose: 2.0 mg/kg/injection, schedule: Q01DX010 (ip), vehicle: saline
[6] = dose: 4.4 mg/kg/injection, schedule: Q## X001 (ip), vehicle: saline
[7] = dose: 6.5 mg/kg/injection, schedule: Q## X001 (ip), vehicle: saline

[N-]=[N+]=CC(=O)NCC(=O)NN
survivor count (dose: 400.0 mg/kg/injection, schedule: Q01DX010 (ip), vehicle: saline): 6 of 6
survivor count (dose: 800.0 mg/kg/injection, schedule: Q01DX010 (ip), vehicle: saline): 5 of 6
survivor count (dose: 1200.0 mg/kg/injection, schedule: Q01DX010 (ip), vehicle: saline): 0 of 6
survivor count (dose: 1600.0 mg/kg/injection, schedule: Q01DX010 (ip), vehicle: saline): 0 of 6

CCNc1nncs1
survivor count (dose: 62.5 mg/kg/injection, schedule: Q01DX010 (ip), vehicle: saline): 6 of 6
survivor count (dose: 125.0 mg/kg/injection, schedule: Q01DX010 (ip), vehicle: saline): 5 of 6

CS(=O)(=O)OCCCl
survivor count (dose: 18.8 mg/kg/injection, schedule: Q01DX010 (ip), vehicle: saline): 6 of 6
survivor count [1]: 6 of 6
survivor count [2]: 6 of 6
survivor count [3]: 3 of 6 and 4 of 6

S=P(N1CC1)(N1CC1)N1CC1
survivor count [4]: 6 of 6

N#Cc1cn(C2OC(CO)C(O)C2O)c2ncnc(N)c12 (stereo not drawn)
survivor count (dose: 0.25 mg/kg/injection, schedule: Q01DX010 (ip), vehicle: saline): 6 of 6
survivor count (dose: 0.5 mg/kg/injection, schedule: Q01DX010 (ip), vehicle: saline): 6 of 6
survivor count [4]: 5 of 6
survivor count [5]: 0 of 6

O=c1[nH]c(=O)n(C2CC(O)C(CO)O2)cc1F (stereo not drawn)
T/C (dose: 10.0 mg/kg/injection, schedule: Q01DX010 (ip), vehicle: saline): 126 % of control (2×)
T/C (dose: 20.0 mg/kg/injection, schedule: Q01DX010 (ip), vehicle: saline): 134 % of control
T/C [1]: 139 % of control
survivor count [2]: 6 of 6
survivor count [3]: 6 of 6

C=CC(CN1CC1)OC(C)=O (stereo not drawn)
survivor count (dose: 6.0 mg/kg/injection, schedule: Q01DX010 (ip), vehicle: saline): 3 of 6
survivor count (dose: 8.0 mg/kg/injection, schedule: Q01DX010 (ip), vehicle: saline): 2 of 6
survivor count (dose: 12.0 mg/kg/injection, schedule: Q01DX010 (ip), vehicle: saline): 0 of 6
survivor count (dose: 18.0 mg/kg/injection, schedule: Q01DX010 (ip), vehicle: saline): 0 of 6

CC[C@]1(O)C[C@H]2CN(CCc3c([nH]c4ccccc34)[C@@](C(=O)OC)(c3cc4c(cc3OC)N(C=O)[C@H]3[C@@](O)(C(=O)OC)[C@H](OC(C)=O)[C@]5(CC)C=CCN6CC[C@]43[C@@H]65)C2)C1
T/C (dose: 1.3 mg/kg/injection, schedule: Q## X001 (ip), vehicle: saline): 140, 152, 153, 155 [9 of 10 alive], 160, 161, 162, 165, 170, 211, 230, 238, 252, 254 % of control (2×)
T/C (dose: 1.9 mg/kg/injection, schedule: Q## X001 (ip), vehicle: saline): 129, 138, 142, 145, 156, 159, 163 [9 of 10 alive], 209, 212, 223 [9 of 10 alive], 225 (2×), 241 [8 of 9 alive], 254 [9 of 10 alive], 271 % of control
T/C (dose: 2.9 mg/kg/injection, schedule: Q## X001 (ip), vehicle: saline): 111 [9 of 10 alive], 121, 137 [9 of 10 alive], 140, 148 [9 of 10 alive], 166, 166 [9 of 10 alive] (2×), 207, 211, 221 [6 of 9 alive], 241 (2×), 245 [9 of 10 alive], 254 % of control [8 of 10 alive]
T/C [6]: 89 [9 of 10 alive], 92 [9 of 10 alive], 94 [7 of 10 alive], 115 [9 of 10 alive], 119 [6 of 9 alive], 120, 125 [9 of 10 alive], 144 [9 of 10 alive], 148, 154 [9 of 10 alive], 169 [8 of 10 alive], 169 [9 of 10 alive], 175, 207 % of control [8 of 10 alive]
survivor count [6]: 5 of 10
T/C [7]: 91 [8 of 10 alive], 92 [8 of 10 alive], 100 [9 of 10 alive], 108, 113 [9 of 10 alive], 130 [9 of 10 alive], 162 [8 of 10 alive], 169 % of control [7 of 9 alive]
survivor count [7]: 2 of 10, 4 of 10, 5 of 10, 6 of 10, 7 of 10, 8 of 10
T/C (dose: 62.5 micrograms/kg/injection, schedule: Q01DX010 (ip), vehicle: saline): 128 % of control
T/C (dose: 125.0 micrograms/kg/injection, schedule: Q01DX010 (ip), vehicle: saline): 132 % of control

N[C@@H](Cc1ccc(N(CCCl)CCCl)cc1)C(=O)O
survivor count (dose: 0.5 mg/kg/injection, schedule: Q01DX010 (ip), vehicle: other): 6 of 6
survivor count (dose: 2.0 mg/kg/injection, schedule: Q01DX010 (ip), vehicle: other): 5 of 6
T/C [5]: 130 % of control
survivor count (dose: 4.0 mg/kg/injection, schedule: Q01DX010 (ip), vehicle: other): 3 of 6
survivor count (dose: 4.0 mg/kg/injection, schedule: Q01DX010 (ip), vehicle: saline): 5 of 6 and 6 of 6
